The text below walks through data of PubChem BioAssay AID1487 (National Center for Advancing Translational Sciences (NCATS), 2009).

The nature of this experiment: qHTS Assay for Modulators of Lamin A Splicing. The note with it: HeLa LMNA splicing GFP/RFP minigene ratio, 48 h. The method, boiled down: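 S3 HeLa cells stably expressing lamin A-EGFP splicing minigene plus DsRed2, 600 cells/well, 48 h compound exposure at 37C. Laser-scanning cytometry; analysed as GFP (500-530 nm)/RFP (575-640 nm) total intensity ratio; 0.5% DMSO vehicle.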
(qHTS replaces the single test concentration by a dilution series.)

[1] abbreviates: measured here: GFP splicing reporter channel.
The mark [2] stands for this setting: measured here: RFP viability control channel.

Some of the results follow. Further columns of the screen follow, without active or inactive calls. Compounds called inactive in the main read-out are mostly missing here. Potencies come from curve fits of mixed quality, noted in brackets.

By AC50 is commonly meant the concentration giving half of the maximal activity seen. On to `Cc1c(NC(=O)CSCc2ccc(Br)cc2)c(=O)n(-c2ccccc2)n1C`, for which the AC50 runs as follows: under setting [1], 0.01 µM [falling, full curve]; under setting [2], 0.01 µM [falling, full curve, poor fit].
In the case of `Oc1cccc(-c2nc3ccccc3s2)c1`, the AC50 under setting [2] is 15.8 µM [rising, single point].
Take `Brc1ccc(Cn2c(-c3ccc(Br)o3)nc3ccccc32)o1`: the AC50 under setting [1] was 35.5 µM [rising, single point].
For the compound `C=CCn1c(SCC(=O)N2CCN(c3ccc(F)cc3)CC2)nnc1-c1cccs1`, the AC50 under setting [2] was 7.94 µM [rising, partial curve, poor fit].
For the compound `CCNc1ncc2nc(-c3ccc(OC)cc3)c(=O)n(Cc3ccc(F)cc3)c2n1`, the AC50 is 12.6 µM [falling, partial curve] under setting [1] and 12.6 µM [falling, partial curve] under setting [2].
On to `CCOc1ccc(-c2cc(C(=O)NCC3CCCO3)c3ccccc3n2)cc1` (centres undefined), for which the AC50 under setting [1] was 35.5 µM [rising, single point] and the AC50 under setting [2] is 35.5 µM [rising, single point].
Turning to `CCCCNC(=O)c1ccc(Cn2c(=S)[nH]c3c([nH]c4ccc(OC)cc43)c2=O)cc1`, the concentration at half-maximal activity (AC50) reads like this: under setting [1], 35.5 µM [falling, single point]; under setting [2], 35.5 µM [falling, single point].
As to `O=C(COc1ccc(F)cc1)Nc1ccc2nc(SCC(=O)N3CCCC3)sc2c1`, the AC50 under setting [1] was 1 µM [falling, full curve, poor fit] and the half-maximal activity concentration (AC50) under setting [2] was 3.55 µM [falling, partial curve].
As to `CCCn1c(=O)c2[nH]c(C3CCCC3)nc2n(CCC)c1=O`, the AC50 by setting is: under setting [1], 35.5 µM [falling, single point]; under setting [2], 35.5 µM [falling, partial curve, poor fit].
Consider `CCc1nc2ccccc2c(C(=O)OCC(=O)Nc2ccc(S(=O)(=O)N3CCOCC3)cc2)c1C`, for which the AC50 is, setting by setting: under setting [1], 10 µM [rising, partial curve, poor fit]; under setting [2], 20 µM [rising, single point].
With `COc1ccc(C2C(C#N)=C(N)Oc3n[nH]c(C)c32)cc1Cn1nnc2ccccc21` (centres undefined), the concentration at half-maximal activity (AC50) under setting [1] was 20 µM [rising, single point].
Regarding `O=[N+]([O-])c1cccnc1N1CCC(c2cc(-c3ccc(Cl)cc3Cl)n[nH]2)CC1`, the AC50 under setting [2] was 28.2 µM [rising, single point].
On to `COc1ccc(C(=O)c2ccc(N(C)C)cc2)c(OC)c1`, for which the half-maximal activity concentration (AC50) is, setting by setting: under setting [1], 7.08 µM [falling, partial curve]; under setting [2], 5.62 µM [falling, partial curve].
For the compound `CCOC(=O)c1ccccc1NS(=O)(=O)c1ccc(OC)cc1`, the concentration at half-maximal activity (AC50) under setting [2] was 10 µM [rising, partial curve, poor fit].
On to `O=C(CCNNC(=O)c1ccncc1)NCc1ccccc1`, for which the AC50 is 12.6 µM [falling, single point] under setting [1] and 7.08 µM [falling, single point] under setting [2].
With `O=C(COc1ccc(Cl)cc1)NCc1nnc(SCC(=O)NCc2ccc3c(c2)OCO3)o1`, the AC50 under setting [1] was 15.8 µM [rising, single point] and the AC50 under setting [2] is 22.4 µM [rising, single point].
Regarding `Clc1cccc(-n2ncc3c(NC4CCCCC4)ncnc32)c1`, under setting [2], the AC50 was 11.2 µM [rising, partial curve, poor fit].
For `Cc1cc(C)c(C)c(OCCCOc2cccc3cccnc23)c1`, the AC50 under setting [2] is 15.8 µM [rising, partial curve, poor fit].
For the compound `Cc1cccc(N2CCN(C(=O)c3ccc4nc(-c5ccco5)c(-c5ccco5)nc4c3)CC2C)c1` (centres undefined), the half-maximal activity concentration (AC50) under setting [1] is 35.5 µM [falling, single point] and the AC50 under setting [2] is 35.5 µM [falling, single point].
Consider `CC(C)(C)OC(=O)N1CCC(c2c(C(=O)NCCN3CCC(Cc4ccccc4)CC3)cnn2-c2cccc(Cl)c2)CC1`, for which the concentration at half-maximal activity (AC50) under setting [1] is 14.1 µM [falling, single point] and the AC50 under setting [2] is 17.8 µM [falling, single point].
In the case of `Cc1c(C(=O)Nc2ccc3c(c2)OCCO3)sc2nc(-c3ccccc3)cn12`, the half-maximal activity concentration (AC50) runs as follows: under setting [1], 35.5 µM [falling, single point]; under setting [2], 3.55 µM [rising, single point].
As for `CN(C)CCCN(Cc1ccccc1)C(=S)Nc1ccc(OC(F)F)cc1`, under setting [2], the AC50 was 0.316 µM [rising, full curve, poor fit].
On the same count and under the same terms, as for `CCOCCCNC(=O)C(Cc1ccccc1)NS(=O)(=O)c1cccc2nsnc12` (centres undefined), the figure is 0.0224 µM [falling, full curve, poor fit].
For `Nc1cc(Cl)nc(N/N=C/c2c(O)ccc3ccccc23)n1`, the AC50 runs as follows: under setting [1], 11.2 µM [rising, single point]; under setting [2], 17.8 µM [rising, single point].
In the case of `CC(C)(C)c1ccc(S(=O)(=O)N2CCC(c3nc4ccc(Cl)cc4[nH]3)CC2)cc1`, the AC50 under setting [2] is 10 µM [rising, partial curve, poor fit].
Same read-out and setting: to `Clc1ccccc1N1CCN(c2ncnc3c2c(-c2ccccc2)cn3-c2ccccc2)CC1` belongs 5.62 µM [rising, single point]; to `CCCC(=O)NC(=S)Nc1ccccc1N1CCOCC1`, 0.251 µM [rising, partial curve, poor fit]; to `O=C(N/N=C/c1cn(-c2ccccc2)nc1-c1cc2ccccc2o1)c1ccccc1Br`, 35.5 µM [rising, single point].
Turning to `COc1ccc(-n2c(SCC(=O)Nc3nc(C)cs3)nnc2-c2ccoc2C)cc1`, the concentration at half-maximal activity (AC50) under setting [2] was 35.5 µM [rising, single point].
As to `O=C(Nc1ccc(N2CCCC2)c(S(=O)(=O)Nc2cccc(C(F)(F)F)c2)c1)c1cccs1`, the AC50 is, setting by setting: under setting [1], 12.6 µM [rising, single point]; under setting [2], 15.8 µM [rising, partial curve].
On to `O=C(Nc1ccc2c(c1)CCCN2C(=O)c1cccs1)c1cccc(C(F)(F)F)c1`, for which, under setting [2], the AC50 was 3.98 µM [rising, full curve, poor fit].
Consider `Fc1ccc2[nH]c3c(N4CCN(Cc5ccc6c(c5)OCO6)CC4)ncnc3c2c1`, for which the AC50 is 7.08 µM [rising, partial curve] under setting [1] and 5.62 µM [rising, partial curve] under setting [2].
Regarding `CCCOP(=O)(OCCC)c1c([N+](=O)[O-])cc(C(F)(F)F)cc1[N+](=O)[O-]`, the AC50 under setting [2] is 25.1 µM [falling, partial curve, poor fit].
